Data from the supplement of paper PMC3682954.
Where “and” joins values, the source holds several entries; their conditions need not be identical. Identical values can stand only once. Counter-ions that a name gives are not always drawn. ± gives the standard deviation of the averaged measurements. The list shows a part of the results. Most values come without repeats; read them as rough.

Test system: RAW 264.7
Test: cell viability (MTT) relative to vehicle control; higher = more viable cells
Settings: stimulus: HMGB1 5 ug/ml, 18 h
[1] = compound concentration: 1 ug/ml

SMILES	cell viability (compound concentration: 3 uM)	cell viability [1] [%]
CCCC[N+]1(C)[C@H]2CC(OC(=O)C(CO)c3ccccc3)C[C@H]1[C@H]1O[C@H]12 (stereo not given in full) [Scopolamine N-butyl]	96.9%	–
CC1=C2C3OC(=O)C(C)C3CCC2(C)C=CC1=O (stereo not given) [a-Santonin]	–	104
CC1C=CC=CCCC=CC=CC=CC=CC(OC2OC(C)C(O)C(N)C2O)CC2OC(O)(CC(O)C(O)CCC(O)CC(O)CC(O)CC(=O)OC(C)C(C)C1O)CC(O)C2C(=O)O (stereo not given)	111%	–
CC1C=CC=CCCC=CC=CC=CC=CC(OC2OC(C)C(O)C(N)C2O)CC2OC(O)(CC(O)C(O)CCC(O)CC(O)CC(O)CC(=O)OC(C)C(C)C1O)CC(O)C2C(=O)O (stereo not given) [Nystatin]	119%	–
CC(N)C(O)c1ccc(O)c(O)c1 (single isomer, unassigned; (-)) [(-)-alpha-Methylnorepinephrine]	104%	–
CC(C)[C@@]1(NC(=O)[C@@H]2C=C3c4cccc5[nH]cc(c45)C[C@H]3N(C)C2)O[C@@]2(O)[C@@H]3CCCN3C(=O)[C@H](Cc3ccccc3)N2C1=O [Ergocristine]	–	104
COc1ccc2c(c1)[C@@]13CCCC[C@H]1[C@@H](C2)NCC3 [3-Methoxy-morphanin hydrochloride]	113%	–
COc1cc2c(c(OC)c1OC)-c1ccc(OC)c(=O)cc1[C@@H](NC(C)=O)CC2	77.9 ± 1.5%	–
COc1cc2c(c(OC)c1OC)-c1ccc(OC)c(=O)cc1[C@@H](NC(C)=O)CC2 [Colchicine]	65.5 ± 7.5%	92.6
CC[C@@H](CO)NC(=O)[C@@H]1C=C2c3cccc4c3c(cn4C)C[C@H]2N(C)C1 [Methysergide]	106%	–
CC[C@@H](CO)NC(=O)[C@@H]1C=C2c3cccc4c3c(cn4C)C[C@H]2N(C)C1	104%	–
CC[C@@H](CO)NC(=O)[C@@H]1C=C2c3cccc4c3c(cn4C)C[C@H]2N(C)C1 [Methysergide maleate]	117%	–
N#C[C@H](O[C@@H]1O[C@H](CO[C@@H]2O[C@H](CO)[C@@H](O)[C@H](O)[C@H]2O)[C@@H](O)[C@H](O)[C@H]1O)c1ccccc1	91.9%	–
CC(C)C1CNC(C(=O)O)C1CC(=O)O (stereo not given) [Dihydrokainic acid]	109%	–
C[C@]12CC[C@H](O)CC1=CC[C@@H]1[C@@H]2CC[C@]2(C)C(=O)CC[C@@H]12 [Dehydroepiandrosterone]	99%	–
C[C@]12CC[C@H](O)CC1=CC[C@@H]1[C@@H]2CC[C@]2(C)C(=O)CC[C@@H]12	113% and 99.6%	–
CN1C(=O)CN=C(c2ccccc2)c2cc(Cl)ccc21 [Diazepam]	93.3%	–
Cc1cc([C@@H]2CCCN2C)on1 [ABT-418 hydrochloride]	104%	–
C=C1C/C(=C/C)C(=O)O[C@@H]2CCN3CC=C(COC(=O)[C@]1(C)O)[C@H]23 [Seneciphylline]	–	89.8
c1ccc2c(c1)OCC(C1=NCCN1)O2 (stereo not given)	110%	–
c1ccc2c(c1)OCC(C1=NCCN1)O2 (stereo not given) [Idazoxan]	112%	–
c1ccc2c(c1)OCC(C1=NCCN1)O2 (stereo not given) [Idazoxan hydrochloride]	94.6 ± 6.3%	–
CCCCCC[C@H]1C(=O)O[C@H](C)[C@H](NC(=O)c2cccc(NC=O)c2O)C(=O)O[C@@H](C)[C@@H]1OC(=O)CC(C)C [Antimycin A]	77.2%	–
CCCN(CCC)[C@H]1CCc2c(F)ccc(O)c2C1 [S(-)-UH-301 hydrochloride]	108%	–
CC[N+]1(C)CCCC(OC(=O)C(O)(c2ccccc2)c2ccccc2)C1 (stereo not given) [Pipenzolate bromide]	109%	–

SMILES	cell viability (compound concentration: 3 uM)	cell viability [1] [%]
CC[N+]1(C)CCCC(OC(=O)C(O)(c2ccccc2)c2ccccc2)C1 (stereo not given)	109%	–
C/C=C(/C)C(=O)O[C@H]1C(C)=C2[C@H]([C@@H]1OC(=O)CCCCCCC)[C@@](C)(OC(C)=O)C[C@H](OC(=O)CCC)[C@@]1(O)[C@H]2OC(=O)[C@@]1(C)O [Thapsigargin]	13.3%	–
C[C@]12CC[C@@H](O)C[C@@H]1CC[C@@H]1[C@@H]2CC[C@]2(C)[C@@H](C(=O)CO)CC[C@@H]12 [3-alpha,21-Dihydroxy-5-alpha-pregnan-20-one]	102%	–
CC1=C2C(=CO[C@H](C)[C@H]2C)C(O)=C(C(=O)O)C1=O	138%	–
CCCN(CCC)C1CCc2cccc(O)c2C1 (racemic) [(±)-8-Hydroxy-DPAT hydrobromide]	104%	–
CC(C)c1cccc(C(C)C)c1O [Propofol]	103 ± 6.7%	–
CC(C)c1cccc(C(C)C)c1O	108%	–
C[C@]12CC[C@H](O)C[C@H]1CC[C@@H]1[C@@H]2CC[C@]2(C)[C@@H](C3=CC(=O)OC3)CC[C@]12O [Digitoxigenin]	115%	–
CCCCCCCCCOc1ccc2[nH]cc(CCN)c2c1 [5-Nonyloxytryptamine]	99.6%	–
C[C@]1(C(=O)O)CCC[C@]2(C)c3cc(O)ccc3CC[C@@H]12 [Podocarpic acid]	–	92.5
CCCN1CCC[C@@H]2Cc3n[nH]cc3C[C@H]21	109%	–
CCCN1CCC[C@@H]2Cc3n[nH]cc3C[C@H]21 [(-)-Quinpirole hydrochloride]	102%	–
CCCN1CCC[C@@H]2Cc3n[nH]cc3C[C@H]21 (racemic) [(±)-Quinpirole dihydrochloride]	102%	–
C=C(C)CN1CC[C@]23c4c5ccc(O)c4O[C@H]2c2[nH]c4ccccc4c2C[C@@]3(O)C1C5	104%	–
CC(=O)O[C@H]1CC[C@@]2(C)C(=CC[C@@H]3[C@@H]2CC[C@]2(C)C(=O)CC[C@@H]32)C1	114%	–
CC(=O)O[C@H]1CC[C@@]2(C)C(=CC[C@@H]3[C@@H]2CC[C@]2(C)C(=O)CC[C@@H]32)C1 [Dehydroisoandosterone 3-acetate]	97.4%	–
O=C(NCNC(=O)NC1C(=O)NC(=O)N1CO)NC1C(=O)NC(=O)N1CO (stereo not given) [Imidurea]	90.1%	–
CN1C[C@H](CNC(=O)OCc2ccccc2)C[C@@H]2c3cccc4c3c(cn4C)C[C@H]21 [Metergoline]	101 ± 11%	–
CN1C[C@H](CNC(=O)OCc2ccccc2)C[C@@H]2c3cccc4c3c(cn4C)C[C@H]21	103%	–
NNc1ccn([C@@H]2O[C@H](CO)[C@@H](O)[C@H]2O)c(=O)n1 [N4-Aminocytidine]	–	95
O=C(O)CC[N+](=O)[O-] [BOVINOCIDIN (3-nitropropionic acid)]	121%	–
O=C(O)CC[N+](=O)[O-] [3-Nitropropionic acid]	108%	–
Oc1ccc2c3c1O[C@H]1[C@@H](O)CC[C@@]4(O)[C@@H](C2)N(CC2CCC2)CC[C@]314	112%	–
Oc1ccc2c3c1O[C@H]1[C@@H](O)CC[C@@]4(O)[C@@H](C2)N(CC2CCC2)CC[C@]314 [Nalbuphine hydrochloride]	99.6%	–
Oc1ccc2c3c1O[C@H]1[C@@H](O)CC[C@@]4(O)[C@@H](C2)N(CC2CCC2)CC[C@]314 [Nalbuphine]	103 ± 15%	–

SMILES	cell viability (compound concentration: 3 uM)	cell viability [1] [%]
OCc1cnc[nH]1 [4-Imidazolemethanol hydrochloride]	108%	–
COc1cc2c(cc1OC)C13CCN4CC5=CCOC6CC(=O)N2C1C6C5CC43 (stereo not given)	–	82
CC[C@@H](C)C(=O)O[C@H]1[C@H](O)[C@H]2[C@@H](CN3C[C@@H](C)CC[C@H]3[C@@]2(C)O)[C@@H]2C[C@]34O[C@]5(O)[C@@H](OC(=O)[C@@](C)(O)CC)CC[C@@]3(C)[C@@H]5[C@@H](OC(C)=O)[C@@H](OC(C)=O)[C@H]4[C@@]21O	108%	–
NCC1(CC(=O)O)CCCCC1 [Gabapentin]	95.8 ± 12%	–
NCC1(CC(=O)O)CCCCC1	97.4%	–
O=c1cccc2n1C[C@@H]1CNC[C@H]2C1	108%	–
O=c1cccc2n1C[C@@H]1CNC[C@H]2C1 [Cytisine]	–	99.2
CC(N)C(O)c1ccccc1 (stereo not given) [Phenylpropanolamine hydrochloride]	104%	–
CC(N)C(O)c1ccccc1 (stereo not given) [Phenylpropanolamine]	99.5%	–
CC(N)C(O)c1ccccc1 (stereo not given)	111%	–
CC1=CCCC2C1(C)CCC(C)C2(C)CC/C(C)=C/Cn1c[n+](C)c2c(N)ncnc21 (stereo not given) [AGELASINE (stereochemistry of diterpene unknown)]	107%	–
O=C(CCCN1CCC2(CC1)C(=O)NCN2c1ccccc1)c1ccc(F)cc1 [Spiperone]	111 ± 10%	–
O=C(CCCN1CCC2(CC1)C(=O)NCN2c1ccccc1)c1ccc(F)cc1	112%	–
O=C(CCCN1CCC2(CC1)C(=O)NCN2c1ccccc1)c1ccc(F)cc1 [Spiperone hydrochloride]	120%	–
CCCN(CCC)C1CCc2ccc(O)cc2C1 (racemic) [(±)-7-Hydroxy-DPAT hydrobromide]	109%	–
C=C1CC[C@@]2(O)[C@H]3Cc4ccc(O)c5c4[C@@]2(CCN3CC2CC2)[C@H]1O5 [Nalmefene hydrochloride]	99.5%	–
CC(C)Oc1cccnc1N(C)C1CCN(Cc2ccccc2)CC1	117%	–
O=[N+]([O-])O[C@H]1CO[C@H]2[C@@H]1OC[C@H]2O[N+](=O)[O-] [Isosorbide dinitrate]	102%	–
O=[N+]([O-])O[C@H]1CO[C@H]2[C@@H]1OC[C@H]2O[N+](=O)[O-]	96.9%	–
Cc1ncsc1CCCl [Chlormethiazole hydrochloride]	108%	–
CCC1(c2ccc(N)cc2)CCC(=O)NC1=O (racemic) [DL-Aminoglutethimide]	92.2%	–
CCC1(c2ccc(N)cc2)CCC(=O)NC1=O (racemic) [(±)-p-Aminoglutethimide]	97.8%	–
CNC1CC(c2ccc(Cl)c(Cl)c2)c2ccccc21 (stereo not given) [Indatraline]	90%	–
CCCCCCC(C)(C)c1ccc([C@@H]2C[C@H](O)CC[C@H]2CCCO)c(O)c1	93.8%	–
